Data from doi:10.1101/2025.11.17.685403.
The exact form of at least one protein or probe is not confirmed. At least one verdict was read from the data and is not stated in words by the source. For part of these data: Where a protein sequence is shown, tags need not be part of it.

Columns and labels:
[1] = tested on: RFS1 K56A (Walker A) + RIP1 (cShu subunit) + SWS1 (cShu subunit); test: EMSA
[2] = tested on: RFS1 E138A (Walker B) + RIP1 (cShu subunit) + SWS1 (cShu subunit); test: EMSA
[3] = biological target: T1, RAD51 (Caenorhabditis elegans) (UniProt Q95Q25); test: fluorescence; settings: 2 mM ATP
T1 sequence (looked up, limits assumed): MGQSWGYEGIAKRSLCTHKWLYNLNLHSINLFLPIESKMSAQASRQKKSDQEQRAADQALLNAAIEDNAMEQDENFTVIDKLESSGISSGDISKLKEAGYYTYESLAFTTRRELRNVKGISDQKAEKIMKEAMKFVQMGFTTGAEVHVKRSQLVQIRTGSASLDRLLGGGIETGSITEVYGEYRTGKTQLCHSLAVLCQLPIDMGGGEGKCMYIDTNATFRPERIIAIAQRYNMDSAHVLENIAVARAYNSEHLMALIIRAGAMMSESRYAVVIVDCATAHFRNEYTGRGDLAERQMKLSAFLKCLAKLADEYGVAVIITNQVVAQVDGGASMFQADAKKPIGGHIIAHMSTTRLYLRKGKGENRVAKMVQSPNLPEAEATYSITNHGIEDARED

| Sequence | binding result [1] | binding result [2] | binding result [3] |
| --- | --- | --- | --- |
| TTTTTTTTTTTTTTTTTTTTCTTGACAAGCTTGCGCACT [ss39] | binds | binds |  |
| TTTTTTTTTTTTTTTTTTTTTTTTTTTTTTTTTTTTTTT [poly(dT)39] |  |  | binds |
